Taken from: PubChem BioAssay AID504744 (Drosophila RNAi Screening Center, 2011)
The deposit covers about 23,000 reagents; this is a random part of those with a known target gene and a result. In the full data, 98 (0.43%) are marked active. 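Only hit calls are given; the phospho-dAkt signals, z-scores and hit direction were not deposited.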 Names joined by + are all predicted targets of the reagent.

Purpose: 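Identify dsRNAs that increase or decrease phospho-dAkt after insulin treatment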 (primary screen)
System: Drosophila Kc167 cells
Reagent: long dsRNA against Drosophila genes, 250 ng dsRNA per well of a 384-well plate
Time to read-out: 3 days of knock-down, then overnight serum-free starvation before stimulation
Treatment: bovine insulin at 387 nM for 10 minutes after 12 h without serum
Read-out: 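Per-well phospho-dAkt level from an in-cell fluorescent antibody stain, divided by a DNA-dye signal; log2 residuals turned into z-scores that take cell number into account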
Active means: 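Hit in the insulin screen when the two-replicate mean z-score is more extreme than plus or minus 2.5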

Target gene	amplicon	Outcome
CG33640	DRSC01324	inactive
Ugt316A1 (UDP-glycosyltransferase family 316 member A1)	DRSC10376	inactive
PNPase (Polynucleotide phosphorylase)	DRSC14304	inactive
crc (cryptocephal)	DRSC03513	inactive
Bub3	DRSC14168	inactive
CG1578	DRSC19729	inactive
Tsen34 (tRNA splicing endonuclease subunit 34)	DRSC22932	inactive
CG30275	DRSC04163	inactive
Ugt35E1 (UDP-glycosyltransferase family 35 member E1)	DRSC15193	inactive
CG5149	DRSC02819	inactive
Rrp42	DRSC07161	inactive
CG32987	DRSC22373	inactive
Dip-C (Dipeptidase C)	DRSC15855	inactive
ArgRS (Arginyl-tRNA synthetase)	DRSC20138	active
CG18128	DRSC04304	inactive
EMC4 (ER membrane protein complex subunit 4)	DRSC11638	inactive
CG4702	DRSC15626	inactive
hoe2 (hoepel2)	DRSC00459	inactive
Osbp (Oxysterol binding protein)	DRSC16779	inactive
CG17085 (retired record)	DRSC02565	inactive
CG17085 (retired record)	DRSC02566	inactive
nmdyn-D7	DRSC17016	inactive
IKKbeta (I-kappaB kinase beta)	DRSC16714	inactive
sotv + CG10731	DRSC05930	inactive
sotv + CG10731	DRSC05997	inactive
pan (pangolin)	DRSC17176	inactive
pan (pangolin)	DRSC22582	inactive
Psf3 (Partner of Sld Five 3)	DRSC18216	inactive
Psf3 (Partner of Sld Five 3)	DRSC21487	inactive
CG32643	DRSC18962	inactive
GstD7 (Glutathione S transferase D7)	DRSC16688	inactive
Cyp18a1 (Cytochrome P450 18a1)	DRSC20235	inactive
Rab3	DRSC07523	inactive
osp (outspread)	DRSC01409	inactive
osp (outspread)	DRSC03585	inactive
CG15515	DRSC15054	inactive
Cka (Connector of kinase to AP-1)	DRSC03476	inactive
Cka (Connector of kinase to AP-1)	DRSC22858	inactive
CG31600	DRSC22541	inactive
CG17528	DRSC07761	inactive
Prosalpha4 (Proteasome alpha4 subunit)	DRSC20271	inactive
Brf (Brf RNA polymerase III subunit)	DRSC13228	inactive
Brf (Brf RNA polymerase III subunit)	DRSC14166	inactive
Brf (Brf RNA polymerase III subunit)	DRSC14167	inactive
Tret1-1 (Trehalose transporter 1-1)	DRSC07046	inactive
Tret1-1 (Trehalose transporter 1-1)	DRSC07048	inactive
CG33341	DRSC22887	inactive
Cyp9b2 (Cytochrome P450 9b2)	DRSC07390	inactive
Gyc88E (Guanylyl cyclase at 88E)	DRSC15547	inactive
CG6983	DRSC10757	inactive
CG6937	DRSC16140	inactive
Grl43a (Gustatory receptor-like 43a)	DRSC06383	inactive
net	DRSC00309	inactive
eIF4E4 (eukaryotic translation initiation factor 4E4)	DRSC09701	inactive
CG42367	DRSC21388	inactive
Mau2	DRSC15550	inactive
nmd (no mitochondrial derivative)	DRSC02856	inactive
SPoCk (Secretory Pathway Calcium atpase)	DRSC11675	inactive
SPoCk (Secretory Pathway Calcium atpase)	DRSC11706	inactive
SPoCk (Secretory Pathway Calcium atpase)	DRSC11844	inactive
SPoCk (Secretory Pathway Calcium atpase)	DRSC11845	inactive
Mulk (Multi-substrate lipid kinase)	DRSC02658	inactive
CG5245	DRSC15750	inactive
TBPH (TAR DNA-binding protein-43 homolog)	DRSC04660	inactive
Cpr97Ea (Cuticular protein 97Ea)	DRSC15974	inactive
Npc1b (Niemann-Pick type C-1b)	DRSC20488	inactive
CG34202	DRSC05907	inactive
HDAC4 (Histone deacetylase 4)	DRSC19780	inactive
cato (cousin of atonal)	DRSC07589	inactive
Tre1 (Trapped in endoderm 1)	DRSC18726	inactive
CG13603	DRSC14606	inactive
CG31380	DRSC15688	inactive
CG11815	DRSC08209	inactive
Irbp18 (Inverted repeat binding protein 18 kDa)	DRSC10612	inactive
dimm (dimmed)	DRSC03100	inactive
CG10383	DRSC02050	inactive
CG8664	DRSC20116	inactive
Dcr-2 (Dicer-2)	DRSC06992	inactive
CG5882	DRSC15907	inactive
Ptp36E (Protein tyrosine phosphatase 36E)	DRSC03021	inactive
CG4783	DRSC15644	inactive
CG33124	DRSC00298	inactive
CG30432	DRSC04833	inactive
Prx1 (Peroxiredoxin 1)	DRSC10741	inactive
mei-38 (meiotic 38)	DRSC18564	inactive
CG3191	DRSC18530	inactive
ppk23 (pickpocket 23)	DRSC20110	inactive

An excerpt from the list above, as a working copy:
Target gene	amplicon	Outcome
SPoCk (Secretory Pathway Calcium atpase)	DRSC11675	inactive
SPoCk (Secretory Pathway Calcium atpase)	DRSC11706	inactive
SPoCk (Secretory Pathway Calcium atpase)	DRSC11844	inactive
SPoCk (Secretory Pathway Calcium atpase)	DRSC11845	inactive
Mulk (Multi-substrate lipid kinase)	DRSC02658	inactive
CG5245	DRSC15750	inactive
TBPH (TAR DNA-binding protein-43 homolog)	DRSC04660	inactive
Cpr97Ea (Cuticular protein 97Ea)	DRSC15974	inactive
Npc1b (Niemann-Pick type C-1b)	DRSC20488	inactive
CG34202	DRSC05907	inactive
HDAC4 (Histone deacetylase 4)	DRSC19780	inactive
cato (cousin of atonal)	DRSC07589	inactive
Tre1 (Trapped in endoderm 1)	DRSC18726	inactive
CG13603	DRSC14606	inactive
CG31380	DRSC15688	inactive

Additional entries:
Target gene	amplicon	Outcome
TwdlJ (TweedleJ)	DRSC15812	inactive
Lime (Linking immunity and metabolism)	DRSC06752	inactive
HPS4 (Hermansky-Pudlak Syndrome 4)	DRSC06906	inactive
CG30047	DRSC05340	inactive
CG42597	DRSC03681	inactive
GstD8 (Glutathione S transferase D8)	DRSC16689	inactive
CG17994	DRSC04877	inactive
cort (cortex)	DRSC02148	inactive
IRSp53 (Insulin receptor substrate 53 kDa)	DRSC10891	inactive
MED31 (Mediator complex subunit 31)	DRSC12142	inactive
CG42284	DRSC22094	inactive
CG42284	DRSC22342	inactive
CG5727	DRSC02882	inactive
CG32683	DRSC17990	inactive
CG32683	DRSC18232	inactive
CG32683	DRSC18233	inactive
alphaTub85E (alpha-Tubulin at 85E)	DRSC16899	inactive
oxt (peptide O-xylosyltransferase)	DRSC08522	inactive
Snx1 (Sorting nexin 1)	DRSC00531	inactive
ZAP3	DRSC17852	inactive
ZAP3	DRSC17853	inactive
ZAP3	DRSC18249	inactive
lncRNA:CR40629 (long non-coding RNA:CR40629)	DRSC20959	inactive
NAAT1 (Nutrient Amino Acid Transporter 1)	DRSC18300	inactive
snRNP-U1-C (small ribonucleoprotein particle U1 subunit C)	DRSC15804	inactive
CG32196	DRSC09548	inactive
CG10713	DRSC09786	inactive
CG31832	DRSC22067	inactive
CG18088	DRSC02654	inactive
CheB38a (Chemosensory protein B 38a)	DRSC03205	inactive
PIG-A (Phosphatidylinositol glycan anchor biosynthesis class A)	DRSC06982	inactive
eIF4E5 (eukaryotic translation initiation factor 4E5)	DRSC10975	inactive
CG32816	DRSC17337	inactive
CG2930	DRSC17730	inactive
CG12360 (retired record)	DRSC14505	inactive
Rift (Riboflavin transporter)	DRSC14330	inactive
lncRNA:CR32660 (long non-coding RNA:CR32660)	DRSC22965	inactive
t-Grip91 (testis-specific gamma-tubulin ring protein 91)	DRSC01506	inactive
CG11109	DRSC11633	inactive
Ama (Amalgam)	DRSC12489	inactive
daed (daedalus)	DRSC00299	inactive
tum (tumbleweed)	DRSC07575	inactive
msl-2 (male-specific lethal 2)	DRSC00829	inactive
cactin	DRSC20576	inactive
Dbp80 (Dead box protein 80)	DRSC22034	inactive
Rrp5 (Ribosomal RNA Processing 5)	DRSC15862	inactive
CG33992 (retired record) + CG43755	DRSC00012	inactive
CG33258	DRSC09415	inactive
CG3604	DRSC00618	inactive
Csl4	DRSC02944	inactive
Csl4	DRSC22664	inactive
bel (belle)	DRSC16555	inactive
Ing3 (Inhibitor of growth family, member 3)	DRSC20002	active
Prosalpha2 (Proteasome alpha2 subunit)	DRSC16798	inactive
CG13551	DRSC21847	inactive
CG3430	DRSC02713	inactive
Cdk5 (Cyclin-dependent kinase 5)	DRSC07359	inactive
Bx (Beadex)	DRSC19350	inactive
CG34183	DRSC01099	inactive
Tbc1d8-9 (TBC1 domain family member 8/9)	DRSC11820	inactive
CG32454	DRSC11652	inactive
CG17752	DRSC15262	inactive
gcl (germ cell-less)	DRSC07623	inactive
ZnT35C (Zinc transporter 35C)	DRSC01959	inactive
SrpRalpha (Signal recognition particle receptor alpha)	DRSC20251	inactive
Obp69a (Odorant-binding protein 69a)	DRSC11247	inactive
lky (leaky)	DRSC20682	inactive
ClpX (Caseinolytic protease chaperone subunit)	DRSC15592	inactive
Larp7 (La related protein 7)	DRSC18798	inactive
Rnb (R and B)	DRSC16325	inactive
